These are yes or no findings as the source states them, for the method shown. Binding calls can cover weak binding; strength is not graded here. Where a sequence is shown, tags or fusion partners need not be part of it. For some assays here: In cells and extracts the contact can be indirect.

One experiment concerns the target T1, Grx4-GFP (S. pombe) (UniProt O74790).
T1 sequence: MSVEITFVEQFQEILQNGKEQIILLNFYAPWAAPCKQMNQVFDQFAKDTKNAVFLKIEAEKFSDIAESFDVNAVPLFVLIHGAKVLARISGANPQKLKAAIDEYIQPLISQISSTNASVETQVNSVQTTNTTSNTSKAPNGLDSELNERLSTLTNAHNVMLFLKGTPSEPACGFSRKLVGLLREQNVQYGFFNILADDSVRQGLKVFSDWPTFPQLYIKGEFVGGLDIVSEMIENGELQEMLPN
The experiment can be described thus: co-IP; total native protein extracts of S. pombe strains with tagged genes, immuno-precipitated with GFP-trap beads, blotted with anti-Myc or anti-GFP; cells treated or not with 0.25 mM DIP; for Grx4-Fep1 also in cells lacking Fra2.

Experiment [1] addresses T2, HA-Grx4 (recombinant, TEV-cleaved) (S. pombe) (UniProt O74790).
T2 sequence: T1 sequence
Description: UV-visible spectroscopy after Fe-S cluster reconstitution; anaerobic in vitro reconstitution of the Fe-S cluster with recombinant Grx4 (50-60 uM) and equimolar recombinant Fra2; both purified.

With Fra2-Myc (S. pombe), the binding result in the experiment with Grx4-GFP (S. pombe) was “binds”.
Regarding Fra2 (recombinant) (S. pombe), in experiment [1], the binding result is recorded as “binds”.
